Data: article PMC12117058
Changes are numbered by the printed parent chain. Results are given in words; binding and its absence hold for the method and conditions named. Binding seen in cells or lysates may run through a third protein. Some results given as binding are weak or reduced against the parent protein; the word gives no strength.

Amino acid sequences for entries named in this document (tags omitted).
UniProt B2RYW8: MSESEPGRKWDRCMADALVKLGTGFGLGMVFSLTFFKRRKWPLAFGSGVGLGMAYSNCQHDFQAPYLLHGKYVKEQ

How the values were obtained:
[1] = target: T1, Arginase 1 (rat (endogenous in VSMCs of Sprague-Dawley rats)) (UniProt P07824); assay: co-IP; endogenous Arg1 and Mic10 in VSMCs; normal against hypoxia; hypoxia with siNC against siArg1
T1 sequence: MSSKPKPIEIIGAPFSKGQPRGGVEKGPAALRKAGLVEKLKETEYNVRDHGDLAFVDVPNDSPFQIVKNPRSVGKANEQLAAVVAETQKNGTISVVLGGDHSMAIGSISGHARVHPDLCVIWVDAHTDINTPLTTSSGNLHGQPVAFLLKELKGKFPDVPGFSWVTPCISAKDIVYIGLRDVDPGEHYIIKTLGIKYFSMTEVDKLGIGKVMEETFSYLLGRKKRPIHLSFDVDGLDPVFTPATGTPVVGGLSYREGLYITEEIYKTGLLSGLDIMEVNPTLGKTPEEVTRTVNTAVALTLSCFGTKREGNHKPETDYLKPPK

wild-type Arg1 (Arg1^WT) = target: T2, wild-type Arg1 (Arg1^WT) (UniProt P07824); assay: co-IP; hypoxic VSMCs with adenoviral Arg1^WT or Arg1^E42A; endogenous Mic10
T2 sequence: T1 sequence

Arg1 (E42A) mutation = target: T3, Arg1 (E42A) mutation (UniProt P07824); assay: as above
T3 sequence: T1 sequence with E42A

Measured: binding

Mic10 (from UniProt B2RYW8 1-76)
binds: [1] | wild-type Arg1 (Arg1^WT) | Arg1 (E42A) mutation
